# Assay results from the supplement of paper PMC8728848.
# The list shows a part of the results.
# B1: PX14375A-pdi-503-28-503 (Parabacteroides distasonis) (protein)
# chain: PLGSPEAGDISEERQAFLRLTAVYSVMKDFRYTWSMQCFGDVLSNDATYSGSSNDAQTFTLLENYQYQADHTEILNKYRYSYQCINKANLFIRDMEMADDALFSKYDKEQMIGEAKFIRAYTYFELVKTFGGVPCYTGVLDLDHERLGRASVEEIYSVIEQDLNDAVSVLPKKSEVANYESSYAGRITKGAAIAMQTRIYLYEKKYDEVKKAFEKFQNECGGEYSLVAPEDYTWQFSLDGEHCSSSILEVNMYNSSTQSSYNVNNGNRHVLMSMPRNMTIGFGCAQPTQALADAYDAEGDVIRKKTTLLSTEEAIEIETAAKGDVAPVTDDRTGWYNRKLYLAPGQREENRGNNQPTNLRLIRLAEVYLNYAEACYFSGDIANAQKYLNEVRSHVNLAPKNHTGSQLFEDIMNERHLEFGMEGFRFFDVVRVGWGEKVFNGTKKAEFGAKTPFSAGAEVLPIPQTEIDISDGLITN
# Legend:
# Assay in all cases: glycan array binding signal (z-score within array); higher = stronger binding
# Details in all cases: glycan notation: IUPAC condensed, linker removed
# Fuc(a1-2)Gal = molecular target: Fuc(a1-2)Gal
# In short: (§1)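 The binding signal is a Z-score computed within each array. Data were drawn from 3228 arrays in the Consortium for Functional Glycomics database, restricted to those with a known protein sequence. Scores were averaged over arrays of the same protein sequence at different concentrations or buffers, and over linkers, and negative values can be taken as non-binding.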
# Fuc(a1-2)Gal(b1-3)GalNAc = molecular target: Fuc(a1-2)Gal(b1-3)GalNAc
# In short: as §1
# [1] = molecular target: Fuc(a1-2)Gal(b1-3)GalNAc(a1-3)[Fuc(a1-2)]Gal(b1-4)Glc
# In short: as §1
# [2] = molecular target: Fuc(a1-2)Gal(b1-3)GalNAc(a1-3)[Fuc(a1-2)]Gal(b1-4)GlcNAc
# In short: as §1
# [3] = molecular target: Fuc(a1-2)Gal(b1-3)GalNAc(b1-3)Gal
# In short: as §1
# [4] = molecular target: Fuc(a1-2)Gal(b1-3)GalNAc(b1-3)Gal(a1-4)Gal(b1-4)Glc
# In short: as §1
# [5] = molecular target: Fuc(a1-2)Gal(b1-3)GalNAc(b1-4)[Neu5Ac(a2-3)]Gal(b1-4)Glc
# In short: as §1
# Fuc(a1-2)Gal(b1-3)GlcNAc = molecular target: Fuc(a1-2)Gal(b1-3)GlcNAc
# In short: as §1
# [6] = molecular target: Fuc(a1-2)Gal(b1-3)GlcNAc(b1-2)Man(a1-3)[Fuc(a1-2)Gal(b1-3)GlcNAc(b1-2)Man(a1-6)]Man(b1-4)GlcNAc(b1-4)GlcNAc
# In short: as §1
# [7] = molecular target: Fuc(a1-2)Gal(b1-3)GlcNAc(b1-2)Man(a1-3)[Fuc(a1-2)Gal(b1-3)GlcNAc(b1-2)Man(a1-6)]Man(b1-4)GlcNAc(b1-4)[Fuc(a1-6)]GlcNAc
# In short: as §1
# [8] = molecular target: Fuc(a1-2)Gal(b1-3)GlcNAc(b1-3)Gal(b1-4)Glc
# In short: as §1
# [9] = molecular target: Fuc(a1-2)Gal(b1-3)GlcNAc(b1-3)GalNAc
# In short: as §1
# [10] = molecular target: Fuc(a1-2)Gal(b1-3)GlcNAc(b1-3)[Fuc(a1-2)Gal(b1-3)GlcNAc(b1-6)]GalNAc
# In short: as §1
# [11] = molecular target: Fuc(a1-2)Gal(b1-3)GlcNAc(b1-3)[Gal(b1-4)GlcNAc(b1-6)]Gal(b1-4)Glc
# In short: as §1
# [12] = molecular target: Fuc(a1-2)Gal(b1-3)GlcNAc(b1-3)[Neu5Ac(a2-6)Gal(b1-4)GlcNAc(b1-6)]Gal(b1-4)Glc
# In short: as §1
# [13] = molecular target: Fuc(a1-2)Gal(b1-3)GlcNAc6S
# In short: as §1
# [14] = molecular target: Fuc(a1-2)Gal(b1-3)[Fuc(a1-4)]GlcNAc
# In short: as §1
# [15] = molecular target: Fuc(a1-2)Gal(b1-3)[Fuc(a1-4)]GlcNAc(b1-2)Man(a1-3)[Fuc(a1-2)Gal(b1-3)[Fuc(a1-4)]GlcNAc(b1-2)Man(a1-3)]Man(b1-4)GlcNAc(b1-4)GlcNAc
# In short: as §1
# [16] = molecular target: Fuc(a1-2)Gal(b1-3)[Fuc(a1-4)]GlcNAc(b1-2)Man(a1-3)[Fuc(a1-2)Gal(b1-3)[Fuc(a1-4)]GlcNAc(b1-2)Man(a1-6)]Man(b1-4)GlcNAc(b1-4)[Fuc(a1-6)]GlcNAc(b1-4)[Fuc(a1-6)]GlcNAc
# In short: as §1
# [17] = molecular target: Fuc(a1-2)Gal(b1-3)[Fuc(a1-4)]GlcNAc(b1-3)[Fuc(a1-3)[Gal(b1-4)]GlcNAc(b1-6)]Gal(b1-4)Glc
# In short: as §1
# [18] = molecular target: Fuc(a1-2)Gal(b1-3)[Fuc(a1-4)]GlcNAc(b1-3)[Gal(b1-4)GlcNAc(b1-6)]Gal(b1-4)Glc
# In short: as §1
# Fuc(a1-2)Gal(b1-4)Glc = molecular target: Fuc(a1-2)Gal(b1-4)Glc
# In short: as §1
# Fuc(a1-2)Gal(b1-4)Glc6S = molecular target: Fuc(a1-2)Gal(b1-4)Glc6S
# In short: as §1
# Fuc(a1-2)Gal(b1-4)GlcNAc = molecular target: Fuc(a1-2)Gal(b1-4)GlcNAc
# In short: as §1
# [19] = molecular target: Fuc(a1-2)Gal(b1-4)GlcNAc(b1-2)Man
# In short: as §1
# [20] = molecular target: Fuc(a1-2)Gal(b1-4)GlcNAc(b1-2)Man(a1-3)[Fuc(a1-2)Gal(b1-4)GlcNAc(b1-2)Man(a1-6)]Man(b1-4)GlcNAc(b1-4)GlcNAc
# In short: as §1
# [21] = molecular target: Fuc(a1-2)Gal(b1-4)GlcNAc(b1-2)Man(a1-3)[Fuc(a1-2)Gal(b1-4)GlcNAc(b1-2)Man(a1-6)]Man(b1-4)GlcNAc(b1-4)[Fuc(a1-6)]GlcNAc
# In short: as §1
# [22] = molecular target: Fuc(a1-2)Gal(b1-4)GlcNAc(b1-2)[Fuc(a1-2)Gal(b1-4)GlcNAc(b1-4)]Man(a1-3)[Fuc(a1-2)Gal(b1-4)GlcNAc(b1-2)Man(a1-6)]Man(b1-4)GlcNAc(b1-4)GlcNAc
# In short: as §1
# [23] = molecular target: Fuc(a1-2)Gal(b1-4)GlcNAc(b1-3)Gal(b1-4)GlcNAc
# In short: as §1
# [24] = molecular target: Fuc(a1-2)Gal(b1-4)GlcNAc(b1-3)Gal(b1-4)GlcNAc(b1-2)Man(a1-3)[Fuc(a1-2)Gal(b1-4)GlcNAc(b1-3)Gal(b1-4)GlcNAc(b1-2)Man(a1-6)]Man(b1-4)GlcNAc(b1-4)GlcNAc
# In short: as §1
binder,measurement,setting,value
B1,glycan array binding signal (z-score),Fuc(a1-2)Gal,-0.635
same,glycan array binding signal (z-score),Fuc(a1-2)Gal(b1-3)GalNAc,-0.01
same,glycan array binding signal (z-score),[1],-0.032
same,glycan array binding signal (z-score),[2],-1
same,glycan array binding signal (z-score),[3],-0.431
same,glycan array binding signal (z-score),[4],-0.023
same,glycan array binding signal (z-score),[5],-0.262
same,glycan array binding signal (z-score),Fuc(a1-2)Gal(b1-3)GlcNAc,-0.222
same,glycan array binding signal (z-score),[6],0.53
same,glycan array binding signal (z-score),[7],0.448
same,glycan array binding signal (z-score),[8],-0.604
same,glycan array binding signal (z-score),[9],-0.306
same,glycan array binding signal (z-score),[10],-0.393
same,glycan array binding signal (z-score),[11],-0.394
same,glycan array binding signal (z-score),[12],0.897
same,glycan array binding signal (z-score),[13],0.876
same,glycan array binding signal (z-score),[14],-0.033
same,glycan array binding signal (z-score),[15],0.809
same,glycan array binding signal (z-score),[16],-0.045
same,glycan array binding signal (z-score),[17],-0.52
same,glycan array binding signal (z-score),[18],-0.41
same,glycan array binding signal (z-score),Fuc(a1-2)Gal(b1-4)Glc,-0.423
same,glycan array binding signal (z-score),Fuc(a1-2)Gal(b1-4)Glc6S,-0.582
same,glycan array binding signal (z-score),Fuc(a1-2)Gal(b1-4)GlcNAc,-0.177
same,glycan array binding signal (z-score),[19],-0.052
same,glycan array binding signal (z-score),[20],-0.105
same,glycan array binding signal (z-score),[21],0.481
same,glycan array binding signal (z-score),[22],1.43
same,glycan array binding signal (z-score),[23],-0.787
same,glycan array binding signal (z-score),[24],0.132

# Looked up one by one from the entries so far, two records:
binder,measurement,setting,value
B1,glycan array binding signal (z-score),[12],0.897
same,glycan array binding signal (z-score),Fuc(a1-2)Gal(b1-4)Glc6S,-0.582
